According to the supplement of paper PMC10849652:
This is one part of the list.

Amino acid sequences for entries named in this document (tags omitted). A change or cut given only in a name is not applied to a line headed by its entry.
UniProt P35251: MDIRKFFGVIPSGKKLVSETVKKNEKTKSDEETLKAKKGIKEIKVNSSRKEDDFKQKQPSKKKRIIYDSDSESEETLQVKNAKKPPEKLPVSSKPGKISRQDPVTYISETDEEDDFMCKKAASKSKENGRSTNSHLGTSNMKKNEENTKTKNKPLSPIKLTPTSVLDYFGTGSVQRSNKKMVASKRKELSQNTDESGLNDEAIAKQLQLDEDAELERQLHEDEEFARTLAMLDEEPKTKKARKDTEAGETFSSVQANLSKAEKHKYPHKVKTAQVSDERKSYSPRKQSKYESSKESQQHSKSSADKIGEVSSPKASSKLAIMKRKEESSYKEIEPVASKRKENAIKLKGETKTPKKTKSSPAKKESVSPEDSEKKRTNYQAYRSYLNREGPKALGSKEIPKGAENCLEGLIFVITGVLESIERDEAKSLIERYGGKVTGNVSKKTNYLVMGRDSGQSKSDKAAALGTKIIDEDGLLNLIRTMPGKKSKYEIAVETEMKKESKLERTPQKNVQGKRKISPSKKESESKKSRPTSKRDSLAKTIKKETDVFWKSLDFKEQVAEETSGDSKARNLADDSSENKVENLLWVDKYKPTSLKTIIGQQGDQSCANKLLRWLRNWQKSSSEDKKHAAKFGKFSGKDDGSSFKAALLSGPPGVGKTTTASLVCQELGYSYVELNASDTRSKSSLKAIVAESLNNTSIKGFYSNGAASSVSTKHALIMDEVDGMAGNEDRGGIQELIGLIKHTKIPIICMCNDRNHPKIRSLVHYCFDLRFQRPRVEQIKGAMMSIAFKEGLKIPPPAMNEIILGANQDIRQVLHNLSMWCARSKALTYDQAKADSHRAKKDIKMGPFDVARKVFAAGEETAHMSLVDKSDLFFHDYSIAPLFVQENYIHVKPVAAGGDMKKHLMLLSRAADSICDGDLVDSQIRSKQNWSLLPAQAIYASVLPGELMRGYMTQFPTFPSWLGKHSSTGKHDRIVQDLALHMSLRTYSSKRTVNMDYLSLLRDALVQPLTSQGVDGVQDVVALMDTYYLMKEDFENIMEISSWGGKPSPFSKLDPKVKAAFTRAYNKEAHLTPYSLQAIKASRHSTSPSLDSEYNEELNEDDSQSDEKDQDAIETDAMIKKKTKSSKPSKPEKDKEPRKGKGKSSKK
UniProt P35241, whole entry, looked up: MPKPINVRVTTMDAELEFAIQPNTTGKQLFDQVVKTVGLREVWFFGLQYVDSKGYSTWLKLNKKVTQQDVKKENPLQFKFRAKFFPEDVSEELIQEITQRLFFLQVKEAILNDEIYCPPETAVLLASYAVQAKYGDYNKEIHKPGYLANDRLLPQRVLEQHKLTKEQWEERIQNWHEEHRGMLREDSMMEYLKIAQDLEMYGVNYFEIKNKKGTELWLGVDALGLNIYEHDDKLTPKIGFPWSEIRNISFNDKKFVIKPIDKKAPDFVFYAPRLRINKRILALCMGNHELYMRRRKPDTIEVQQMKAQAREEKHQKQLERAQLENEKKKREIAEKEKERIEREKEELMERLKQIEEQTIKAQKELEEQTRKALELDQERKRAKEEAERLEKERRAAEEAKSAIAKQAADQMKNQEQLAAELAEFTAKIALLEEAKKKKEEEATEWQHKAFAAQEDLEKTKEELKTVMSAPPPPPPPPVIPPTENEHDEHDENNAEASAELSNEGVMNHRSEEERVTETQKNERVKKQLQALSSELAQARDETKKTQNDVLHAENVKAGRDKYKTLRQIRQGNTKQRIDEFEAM
UniProt Q96A37: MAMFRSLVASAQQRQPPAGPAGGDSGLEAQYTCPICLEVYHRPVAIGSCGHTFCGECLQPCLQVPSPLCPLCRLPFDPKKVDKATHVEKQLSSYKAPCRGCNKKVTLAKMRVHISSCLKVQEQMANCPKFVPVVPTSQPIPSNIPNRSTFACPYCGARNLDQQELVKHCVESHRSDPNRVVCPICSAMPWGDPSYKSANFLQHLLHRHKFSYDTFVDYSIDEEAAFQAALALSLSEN
UniProt Q9NVW2: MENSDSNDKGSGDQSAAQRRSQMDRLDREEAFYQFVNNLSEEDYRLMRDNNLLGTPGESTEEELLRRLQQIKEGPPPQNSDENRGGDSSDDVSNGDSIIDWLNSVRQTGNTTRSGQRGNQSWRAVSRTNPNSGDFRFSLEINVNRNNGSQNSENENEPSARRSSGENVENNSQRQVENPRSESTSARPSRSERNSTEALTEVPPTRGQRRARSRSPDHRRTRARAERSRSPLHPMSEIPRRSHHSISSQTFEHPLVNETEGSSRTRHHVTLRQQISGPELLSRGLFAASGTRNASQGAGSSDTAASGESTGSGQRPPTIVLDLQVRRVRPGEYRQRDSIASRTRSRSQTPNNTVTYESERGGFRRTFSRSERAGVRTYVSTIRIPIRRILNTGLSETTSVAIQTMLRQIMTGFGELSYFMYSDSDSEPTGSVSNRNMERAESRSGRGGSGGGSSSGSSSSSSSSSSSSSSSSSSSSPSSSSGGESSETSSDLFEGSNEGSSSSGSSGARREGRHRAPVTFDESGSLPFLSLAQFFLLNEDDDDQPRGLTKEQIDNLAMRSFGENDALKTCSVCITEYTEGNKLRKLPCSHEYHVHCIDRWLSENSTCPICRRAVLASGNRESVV
UniProt Q9BWE0: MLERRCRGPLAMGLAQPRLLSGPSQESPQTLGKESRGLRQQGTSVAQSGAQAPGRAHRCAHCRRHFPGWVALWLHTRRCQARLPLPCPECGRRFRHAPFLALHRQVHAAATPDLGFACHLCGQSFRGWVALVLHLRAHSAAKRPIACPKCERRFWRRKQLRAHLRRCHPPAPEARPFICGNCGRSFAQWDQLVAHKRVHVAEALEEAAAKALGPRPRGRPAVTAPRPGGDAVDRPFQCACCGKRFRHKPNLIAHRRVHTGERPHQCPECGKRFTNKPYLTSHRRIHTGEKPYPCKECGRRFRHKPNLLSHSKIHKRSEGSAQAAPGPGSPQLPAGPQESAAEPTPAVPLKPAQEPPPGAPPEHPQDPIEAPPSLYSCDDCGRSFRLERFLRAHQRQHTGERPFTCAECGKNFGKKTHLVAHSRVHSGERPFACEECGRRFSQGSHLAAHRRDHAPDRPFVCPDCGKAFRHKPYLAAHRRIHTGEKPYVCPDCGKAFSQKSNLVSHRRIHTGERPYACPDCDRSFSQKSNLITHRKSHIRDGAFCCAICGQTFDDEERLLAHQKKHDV
UniProt P35249, whole entry, looked up: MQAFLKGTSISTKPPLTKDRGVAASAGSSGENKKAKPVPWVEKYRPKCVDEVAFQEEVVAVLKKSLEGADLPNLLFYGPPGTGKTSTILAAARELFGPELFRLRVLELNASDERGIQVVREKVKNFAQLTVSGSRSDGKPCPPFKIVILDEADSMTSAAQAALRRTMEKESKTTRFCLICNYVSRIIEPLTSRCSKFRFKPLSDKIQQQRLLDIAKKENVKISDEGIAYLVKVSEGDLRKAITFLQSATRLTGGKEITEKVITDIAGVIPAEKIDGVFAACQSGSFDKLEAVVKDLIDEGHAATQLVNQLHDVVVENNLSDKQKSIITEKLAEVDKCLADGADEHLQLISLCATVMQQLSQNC
UniProt Q8ND24: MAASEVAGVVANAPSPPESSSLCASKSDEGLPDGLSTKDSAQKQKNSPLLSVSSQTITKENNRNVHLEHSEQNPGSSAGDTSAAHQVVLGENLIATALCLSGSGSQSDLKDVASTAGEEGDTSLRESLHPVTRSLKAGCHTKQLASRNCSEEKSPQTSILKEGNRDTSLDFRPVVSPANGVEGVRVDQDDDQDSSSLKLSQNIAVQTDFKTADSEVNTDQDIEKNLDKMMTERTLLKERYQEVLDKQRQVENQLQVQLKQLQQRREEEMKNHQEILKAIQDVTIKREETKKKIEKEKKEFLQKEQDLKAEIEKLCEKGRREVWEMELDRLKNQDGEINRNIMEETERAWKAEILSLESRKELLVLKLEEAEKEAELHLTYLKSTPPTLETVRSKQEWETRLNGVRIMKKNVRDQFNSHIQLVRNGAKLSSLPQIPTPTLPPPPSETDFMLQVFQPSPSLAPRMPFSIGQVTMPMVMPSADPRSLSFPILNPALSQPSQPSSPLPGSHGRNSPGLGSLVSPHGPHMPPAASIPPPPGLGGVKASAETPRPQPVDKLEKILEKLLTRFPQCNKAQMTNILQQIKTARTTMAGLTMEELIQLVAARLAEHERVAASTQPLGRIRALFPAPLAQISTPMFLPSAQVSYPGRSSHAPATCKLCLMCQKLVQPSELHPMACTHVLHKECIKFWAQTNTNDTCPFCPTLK
UniProt Q92546: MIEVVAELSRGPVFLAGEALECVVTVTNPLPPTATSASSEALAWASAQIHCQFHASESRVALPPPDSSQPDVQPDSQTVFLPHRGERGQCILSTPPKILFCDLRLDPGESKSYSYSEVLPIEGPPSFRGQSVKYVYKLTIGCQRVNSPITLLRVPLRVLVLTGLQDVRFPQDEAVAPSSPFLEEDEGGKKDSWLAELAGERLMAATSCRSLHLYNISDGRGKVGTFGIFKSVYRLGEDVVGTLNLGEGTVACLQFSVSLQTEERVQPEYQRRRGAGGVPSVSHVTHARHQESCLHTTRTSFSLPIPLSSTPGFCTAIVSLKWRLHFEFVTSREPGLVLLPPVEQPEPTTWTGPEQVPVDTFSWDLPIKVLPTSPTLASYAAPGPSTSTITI
UniProt Q8WZ73: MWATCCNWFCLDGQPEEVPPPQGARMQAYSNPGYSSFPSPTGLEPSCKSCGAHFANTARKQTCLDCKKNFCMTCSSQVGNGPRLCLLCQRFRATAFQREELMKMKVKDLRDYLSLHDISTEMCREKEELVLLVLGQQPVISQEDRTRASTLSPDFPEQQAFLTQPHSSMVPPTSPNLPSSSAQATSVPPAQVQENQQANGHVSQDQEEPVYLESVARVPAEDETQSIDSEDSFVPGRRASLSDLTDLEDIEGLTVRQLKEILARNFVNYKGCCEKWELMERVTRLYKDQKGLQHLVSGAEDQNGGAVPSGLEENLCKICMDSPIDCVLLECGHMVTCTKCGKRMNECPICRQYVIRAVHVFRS
UniProt Q9HBH5: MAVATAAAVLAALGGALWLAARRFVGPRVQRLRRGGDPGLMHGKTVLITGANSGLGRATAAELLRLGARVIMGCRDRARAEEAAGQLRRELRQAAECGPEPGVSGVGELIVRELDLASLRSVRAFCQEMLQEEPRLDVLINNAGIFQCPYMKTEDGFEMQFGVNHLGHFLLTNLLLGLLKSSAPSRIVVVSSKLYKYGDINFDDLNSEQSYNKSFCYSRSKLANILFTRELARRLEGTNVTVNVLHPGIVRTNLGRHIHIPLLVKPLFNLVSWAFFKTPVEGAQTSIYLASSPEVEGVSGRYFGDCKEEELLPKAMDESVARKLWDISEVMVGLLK
UniProt O00287: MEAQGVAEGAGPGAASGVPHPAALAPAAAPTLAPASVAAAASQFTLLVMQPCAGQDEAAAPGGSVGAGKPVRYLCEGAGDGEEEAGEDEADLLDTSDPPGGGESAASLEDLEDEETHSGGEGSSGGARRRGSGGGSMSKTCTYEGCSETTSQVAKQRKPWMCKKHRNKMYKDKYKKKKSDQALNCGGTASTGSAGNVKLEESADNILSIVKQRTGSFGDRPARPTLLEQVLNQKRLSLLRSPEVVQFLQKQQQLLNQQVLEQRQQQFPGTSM
UniProt Q9NTX7: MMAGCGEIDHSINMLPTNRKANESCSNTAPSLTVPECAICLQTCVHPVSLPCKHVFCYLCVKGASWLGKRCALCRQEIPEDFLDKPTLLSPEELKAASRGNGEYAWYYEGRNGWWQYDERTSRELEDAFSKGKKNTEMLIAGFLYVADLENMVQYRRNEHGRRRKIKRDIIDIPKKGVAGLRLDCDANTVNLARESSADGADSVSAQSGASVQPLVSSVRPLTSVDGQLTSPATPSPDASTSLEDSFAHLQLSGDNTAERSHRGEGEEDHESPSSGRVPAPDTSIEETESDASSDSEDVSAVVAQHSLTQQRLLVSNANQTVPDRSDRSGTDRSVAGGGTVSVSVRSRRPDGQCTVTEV
UniProt O43566: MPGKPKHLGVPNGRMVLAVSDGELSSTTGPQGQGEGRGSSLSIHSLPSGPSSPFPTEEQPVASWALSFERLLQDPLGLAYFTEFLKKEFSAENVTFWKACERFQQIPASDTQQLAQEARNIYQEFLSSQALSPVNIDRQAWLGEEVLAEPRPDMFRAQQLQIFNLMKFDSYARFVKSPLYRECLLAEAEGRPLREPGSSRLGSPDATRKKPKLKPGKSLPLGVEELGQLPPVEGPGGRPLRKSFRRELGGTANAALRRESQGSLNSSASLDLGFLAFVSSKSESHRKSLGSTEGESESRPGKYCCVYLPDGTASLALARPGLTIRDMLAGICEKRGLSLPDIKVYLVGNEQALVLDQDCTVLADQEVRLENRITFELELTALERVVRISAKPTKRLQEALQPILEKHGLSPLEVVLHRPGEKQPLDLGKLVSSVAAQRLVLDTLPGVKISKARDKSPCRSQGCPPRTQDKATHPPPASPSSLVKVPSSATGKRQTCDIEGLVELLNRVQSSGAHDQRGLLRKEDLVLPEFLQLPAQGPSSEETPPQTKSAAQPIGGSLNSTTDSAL

Assays:
Experiment in all cases: log2 fold change, soluble protein after heating vs DMSO (PISA); higher = thermal stabilisation; K562 cells, 10 uM, 30 min; active = over 0.2 and 3.5 SD of the protein, either way, in both replicates (recomputed)
[1] = compound: NC(=O)Nc1cc(-c2cccc(F)c2)sc1C(=O)N[C@H]1CCCNC1
In short: (§1)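 Soluble protein was defined as the supernatant after 21,000xg for 90 min. It came from K562 cells at 2×10^6 cells/mL given 10 μM compound for 30 min, heated in aliquots for 3 min across 48°C-58°C, pooled, and extracted in PBS with 0.5% NP-40 at 4°C, and was quantified by TMTpro 16plex LC-MS/MS with equalised channel sums. Thermal stability against control samples, from duplicates, is reported as log2 fold change.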

[2] = compound: NC(=O)c1cnc(N[C@@H]2CCCC[C@@H]2N)nc1Nc1cccc(-n2nccn2)c1
In short: as §1

[3] = compound: NC1(c2ccc(-c3nc4ccn5c(=O)[nH]nc5c4cc3-c3ccccc3)cc2)CCC1
In short: as §1

[4] = compound: NCC(=O)Nc1ccc(-n2nc(C(F)(F)F)cc2-c2ccc3c(ccc4ccccc43)c2)cc1
In short: as §1

entinostat = compound: Nc1ccccc1NC(=O)c1ccc(CNC(=O)OCc2cccnc2)cc1 [entinostat]
In short: as §1

vorinostat = compound: O=C(CCCCCCC(=O)Nc1ccccc1)NO [vorinostat]
In short: as §1

citarinostat = compound: O=C(CCCCCCNC(=O)c1cnc(N(c2ccccc2)c2ccccc2Cl)nc1)NO [citarinostat]
In short: as §1

silmitasertib = compound: O=C(O)c1ccc2c(c1)nc(Nc1cccc(Cl)c1)c1ccncc12 [silmitasertib]
In short: as §1

[5] = compound: c1cc(OCCN2CCCCC2)cc(-c2n[nH]c3ccc(-c4nnc[nH]4)cc23)c1
In short: as §1

[6] = compound: O=C1NC(=O)C(c2cnc3ccccn23)=C1c1cn2c3c(cc(F)cc13)CN(C(=O)N1CCCCC1)CC2
In short: as §1

entospletinib = compound: c1cn2cc(-c3ccc4cn[nH]c4c3)nc(Nc3ccc(N4CCOCC4)cc3)c2n1 [entospletinib]
In short: as §1

Measured: log2 fold change

RCOR3 isoform 3 (UniProt Q9P2K3)
inactive: [1] 0.019 | [2] -0.067 | [3] -0.129 | [4] -0.177 | entinostat 0.1 | vorinostat 0.127 | citarinostat 0.115 | silmitasertib -0.043 | [5] -0.075

RFWD3 (UniProt Q6PCD5)
inactive: [1] 0.113 | [2] -0.234 | [4] -0.199 | entinostat 0.046 | [6] -0.025

RFC1 (UniProt P35251)
inactive: [1] -0.028 | [2] 0.098 | [4] -0.021 | entinostat -0.059 | vorinostat 0.05

RDX (UniProt P35241)
inactive: [1] -0.011 | [2] -0.002 | [3] 0.031 | [4] 0.03 | entinostat -0.037 | vorinostat -0.047 | citarinostat -0.003 | silmitasertib -0.019 | [6] 0.103 | [5] -0.027 | entospletinib 0.001

RNF13 (UniProt O43567)
inactive: [1] -0.008 | [2] -0.04 | [4] 0.085 | entinostat -0.016 | citarinostat -0.035 | [6] 0.065 | [5] 0.063 | entospletinib 0.144

RBM42 (UniProt Q9BTD8)
inactive: [1] 0.053 | [2] 0.061 | [3] 0.126 | [4] 0.062 | entinostat -0.03 | vorinostat 0.086 | citarinostat 0.011 | silmitasertib 0.068 | [6] 0.09 | [5] -0.106 | entospletinib 0.038

RNF168 (UniProt Q8IYW5)
inactive: [1] -0.02 | [2] 0.023 | [3] -0.065 | entinostat 0.001 | silmitasertib 0.049

RNF166 (UniProt Q96A37)
inactive: [1] -0.022 | [2] 0.022 | [3] 0.026 | [4] 0.031 | entinostat 0.004 | vorinostat -0.024 | silmitasertib 0.041

RIPK2 (UniProt O43353)
inactive: [1] -0.113 | [2] 0.017 | [3] -0.027 | [4] 0.007 | entinostat 0 | vorinostat 0.065 | citarinostat 0.032 | silmitasertib 0.032 | [6] -0.027 | [5] -0.029 | entospletinib -0.088

RLIM (UniProt Q9NVW2)
inactive: [1] 0.117 | [2] -0.063 | [4] -0.019 | entinostat -0.219 | vorinostat 0.122 | citarinostat 0.027 | [5] -0.123 | entospletinib -0.122

RIOK1 (UniProt Q9BRS2)
inactive: [1] -0.002 | [2] 0.016 | [3] 0.02 | [4] 0.011 | entinostat -0.045 | vorinostat -0.021 | citarinostat -0.012 | silmitasertib -0.022 | [6] 0.008 | [5] -0.023 | entospletinib 0.027

RBM48 isoform 2 (UniProt Q5RL73)
inactive: [1] -0.334 | [2] -0.008 | entinostat 0.262 | vorinostat 0.005 | [6] 0.029

REPIN1 isoform 4 (UniProt Q9BWE0)
inactive: [1] 0.005 | [2] -0.045 | [3] 0.028 | [4] 0.083 | entinostat 0.028 | vorinostat 0.019 | citarinostat 0.034 | silmitasertib 0.003 | [6] -0.016 | [5] 0.004 | entospletinib 0.038

RFC4 (UniProt P35249)
inactive: [1] 0.04 | [2] 0.075 | [3] -0.071 | [4] -0.025 | entinostat 0.019 | vorinostat 0.08 | citarinostat 0.025 | silmitasertib -0.044 | [6] -0.025 | [5] -0.014 | entospletinib -0.037

RNF126 (UniProt Q9BV68)
inactive: [1] -0.099 | [2] 0.044 | [3] -0.026 | [4] 0.027 | entinostat 0.002 | vorinostat -0.004 | citarinostat 0.07 | silmitasertib 0.029 | [6] -0.046 | [5] -0.018 | entospletinib 0.066

RETREG2 (UniProt Q8NC44)
inactive: [1] 0.084 | [2] -0.045 | [3] 0 | [4] 0.142 | entinostat 0.026 | citarinostat -0.056 | silmitasertib -0.015 | [5] 0.299 | entospletinib -0.036

RNF214 (UniProt Q8ND24)
inactive: [1] -0.056 | [2] 0 | [3] 0.05 | [4] -0.065 | entinostat 0.038 | vorinostat 0.086 | citarinostat 0.022 | silmitasertib 0.086 | [6] 0.047 | [5] -0.144 | entospletinib -0.049

RNF167 (UniProt Q9H6Y7)
inactive: [1] 0.015 | [2] -0.062 | [3] -0.278 | [4] -0.03 | entinostat -0.032 | vorinostat 0.014 | silmitasertib 0.095 | [6] -0.028

RHOXF2B (UniProt P0C7M4)
inactive: [1] -0.113 | [2] 0.079 | entinostat -0.051

RGP1 (UniProt Q92546)
inactive: [1] 0.102 | [2] -0.028 | [3] -0.212 | [4] -0.055 | entinostat 0.112 | silmitasertib -0.075 | [6] -0.021

RBSN (UniProt Q9H1K0)
inactive: [1] 0.255 | [2] -0.335 | [4] -0.033 | entinostat -0.014 | vorinostat 0.117 | citarinostat -0.006 | [5] -0.068 | entospletinib 0.115

RNF20 (UniProt Q5VTR2)
inactive: [1] -0.071 | [2] -0.014 | [3] 0.231 | entinostat 0.146 | vorinostat -0.039 | citarinostat 0.208 | silmitasertib -0.045 | [6] 0.076 | [5] 0.133 | entospletinib 0.027

RFFL (UniProt Q8WZ73)
inactive: [1] -0.264 | [2] -0.049 | [3] 0.137 | [4] 0.215 | entinostat -0.257 | citarinostat -0.005 | silmitasertib 0.092 | [6] -0.072 | [5] -0.354 | entospletinib -0.262

RBM6 (UniProt P78332)
inactive: [1] 0.099 | [2] -0.06 | [3] 0.222 | entinostat -0.317 | vorinostat -0.012 | silmitasertib 0.017

RHOG (UniProt P84095)
inactive: [1] -0.026 | [2] 0.029 | [3] 0.016 | [4] -0.004 | entinostat -0.039 | vorinostat -0.027 | citarinostat 0.037 | silmitasertib -0.046 | [6] -0.058 | [5] 0.054 | entospletinib -0.053

RGN (UniProt Q15493)
inactive: [1] 0.121 | [2] 0.13 | [4] -0.082 | entinostat -0.074 | citarinostat -0.171 | [5] 0 | entospletinib -0.008

RDH14 (UniProt Q9HBH5)
inactive: [1] -0.039 | [2] -0.052 | [3] 0.101 | [4] -0.016 | entinostat -0.038 | vorinostat -0.053 | citarinostat -0.003 | silmitasertib 0.002 | [6] 0.065 | [5] 0.154 | entospletinib 0.057

2 entries drawn at random from those above, as already listed:
RNF167 (UniProt Q9H6Y7)
inactive: [1] 0.015 | [2] -0.062 | [3] -0.278 | [4] -0.03 | entinostat -0.032 | vorinostat 0.014 | silmitasertib 0.095 | [6] -0.028

RFC4 (UniProt P35249)
inactive: [1] 0.04 | [2] 0.075 | [3] -0.071 | [4] -0.025 | entinostat 0.019 | vorinostat 0.08 | citarinostat 0.025 | silmitasertib -0.044 | [6] -0.025 | [5] -0.014 | entospletinib -0.037

(list continues)

RMND1 (UniProt Q9NWS8)
inactive: [1] 0.063 | [2] -0.02 | [3] 0.012 | [4] -0.025 | entinostat 0.005 | vorinostat -0.073 | citarinostat 0.014 | silmitasertib -0.03 | [6] -0.044 | [5] -0.037 | entospletinib 0.086

RFXAP (UniProt O00287)
inactive: [1] -0.044 | [2] 0.005 | [3] -0.004 | [4] -0.029 | entinostat 0.054 | citarinostat 0.069 | silmitasertib 0 | [6] -0.012 | [5] -0.02 | entospletinib -0.018

RNF146 (UniProt Q9NTX7)
inactive: [1] -0.085 | [2] -0.084 | [4] -0.057 | entinostat 0.036 | citarinostat 0.123 | [6] -0.039 | [5] -0.005 | entospletinib 0.057

REEP5 (UniProt Q00765)
inactive: [1] 0.001 | [2] 0 | [3] 0.026 | [4] -0.037 | entinostat -0.011 | vorinostat -0.016 | citarinostat -0.054 | silmitasertib 0.049 | [6] -0.091 | [5] -0.025 | entospletinib 0.025

REPS1 (UniProt Q96D71)
inactive: [1] -0.003 | [2] 0.141 | [4] -0.005 | entinostat 0.004 | vorinostat 0.062 | citarinostat 0.004 | [6] 0.123 | [5] -0.192 | entospletinib 0.183

RGS14 (UniProt O43566)
inactive: [2] -0.184 | [3] 0.03 | [4] -0.307 | vorinostat -0.139 | citarinostat -0.3 | silmitasertib -0.052 | [6] -0.369 | [5] -0.094 | entospletinib 0.021

RNF220 isoform 3 (UniProt Q5VTB9)
inactive: [2] 0.115

RMDN2 isoform 2 (UniProt Q96LZ7)
inactive: [3] -0.018 | [4] 0.116 | silmitasertib -0.275
